# Primary screen of a compound library

Measurements from “University of Dundee, Small-Polar-MMV Screening Library” (2021), ChEMBL document CHEMBL3988442.

A: 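Phenotypic screen: M. tuberculosis growth, cholesterol and DPPC medium, 4 days; the read-out is not stated. Compounds at 50 µM. Direction is inferred from retests: higher values go with more growth inhibition. Size under these conditions: about 69,000 compounds, about 370 of them at 50% or above in at least one test.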
B: 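Whole-cell growth test on Mycobacterium tuberculosis, read after 3 days in glucose-containing 7H9 medium; the read-out is not stated. Concentration: 50 µM. Direction is inferred from retests: higher values go with more growth inhibition. Size under these conditions: about 69,000 compounds, about 760 of them at 50% or above in at least one test.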

Results are given as percent effect. How 0% and 100% were set is not recorded. Most values in the screen are low, and negative values occur. This is an unselected part of the compounds tested. Two or more numbers in one place are separate tests of the same structure; such repeats can differ widely.

Compound,A,B
CCOCC(=O)NC(C)c1cc(C)ccc1C (stereo unspecified),-1.236,1.871
COc1ccc(CN2CC3(CCNCC3)CCC2=O)c(F)c1F,-33.48,-41.46
Cc1cnc(CN(C)C2CCN(CC(=O)Nc3nccs3)C2)o1 (stereo unspecified),-7.946,-27.11
COCc1cn(CC2CCN(Cc3nc(C)c[nH]3)CC2)nn1,8.483,-8.021 and 1.248
O=C(c1ccc(Cl)cc1)N1CCC(N2CCCNC2=O)CC1,-3.373,21.16
CC(C)c1nnc2n1CCN(CCS(=O)(=O)c1ccccc1)C2,1.349,-2.983
CS(=O)(=O)NCC(Cc1cccc(F)c1)N1CCNC1=O (stereo unspecified),-11.39,-24.08
Cc1nc(C2CCCN2Cc2cc(Cl)c3c(c2)OCCCO3)no1 (stereo unspecified),45.56,56.52
CN(Cc1ccco1)C(=O)Nc1ccc(=O)n(C)c1,-8.789,-19.1
CCN(Cc1ccoc1)C(=O)NC1CCN(CC2CC2)C1 (stereo unspecified),12.75,22.3
O=C1c2c(O)cc(O)cc2O[C@@H](c2ccc(O)cc2)[C@@H]1O,4.564,-13 and 0.3749
Cc1cnc(C(=O)NCC2Cc3ccccc3O2)cn1 (stereo unspecified),22.38,33.41 and 27.99
Cn1ncc2c1CCCC2NCc1ccc(Cl)s1 (stereo unspecified),-11.12,18.26
Cc1ncc(CN(C)CCO)c2cc(C(=O)c3ccc(Br)cc3)oc12.Cl,23.46,22.09
O=C(COCC1CC1)N1CCCC(n2cncn2)C1 (stereo unspecified),-24.32,-12.43
[H][C@]12CN(C(=O)C3CC3)CCN1C[C@H](c1ccccc1)[C@H]2C(=O)OCC,-21.96,-24.11
Cc1cn2c(n1)CCC(NC(=O)c1[nH]nc(C)c1Br)C2 (stereo unspecified),2.517,1.548
O=C(O)C(F)(F)F.[H][C@@]12COC[C@]1([H])[C@H](OCc1csc(C)n1)CN2Cc1cccs1,11.8,-1.455
CSc1ccc(C(O)CNS(=O)(=O)C2CC2)cc1 (stereo unspecified),-3.643,-3.426 and 20.19
Cn1cc(N2CCCC(NCc3cccc4c3OCCCO4)C2)cn1 (stereo unspecified),-5.033,19.26
CCN(C)C(=O)Cn1c(-c2ccco2)nn(-c2ccccc2OC)c1=O,21.87,21.33
CC(C)(CO)Nc1cc(-c2cn[nH]c2)ncn1.Cl,-12.58,0.1206
Cc1cc(CN2CCN(C(=O)NC(C)Cn3ccnc3)CC2)no1 (stereo unspecified),2.394,-18.38
CNc1cc(-c2ccncc2)ncn1,-6.612,-31.88
CSCc1nc(CCNC(=O)C(N)c2c(C)n[nH]c2C)cs1 (stereo unspecified),-14.88,16.85
CN1N=C(C(=O)N2CCCC(CCc3c(F)cccc3F)C2)CCC1=O (stereo unspecified),12.86,17.83
CCC(=O)Nc1cc(Br)cnc1OCC(F)(F)F,-2.97,2.453
CC(C)c1nc(CN2CCCC2c2cnn(C)c2)cs1 (stereo unspecified),-17.66,1.101
OCC1CN(Cc2nc(C(F)(F)F)cs2)c2ccccc2O1 (stereo unspecified),24.13,5.007 and 20.32
CCCN1CCCN(c2ccc(-n3ccc(C)n3)nn2)CC1,3.381,4.833 and 3.587
Cc1csc(N2CCN(CC(=O)N3CCNC3=O)CC2C)n1 (stereo unspecified),-0.7894,-17.75
COc1cc(C(=O)N2CCC(c3n[nH]c(C)n3)CC2)cc(OC)c1C,13.92,-11.99
Cc1noc(C)c1C(=O)N1CCC(Nc2cccnn2)CC1,-7.773,-18.86
[H][C@@]12CCCO[C@]1([H])[C@@H](N(C)Cc1cncnc1)CN2Cc1ccco1,-12 and 5.436,-31.73
Cc1cccc(CNCc2c(C)nn(C)c2N2CCOCC2)n1,-0.04871,9.584 and -1.05
CCCS(=O)(=O)CC(=O)Nc1cc(CC(C)(C)C)n[nH]1,3.366,-10.93
Cc1ccc(C(=O)Oc2cc(=O)n3cccc(C)c3n2)cc1,-10.05,-30.07
CS(=O)(=O)NCc1cc2n(n1)CCCN(Cc1ccc(Cl)s1)C2,-21.67,-22.04
Cc1cccc(-c2nc(C)nn2CN2CCN(c3ncccn3)CC2)c1,12.4,4.949
O=c1c2ccccc2nc2n1C(CSc1ccc(F)cc1)CN2 (stereo unspecified),0.2332,36.03 and -35.89
Cc1nnc(CSCc2ccc(OCC(F)(F)F)nc2)o1,6.048,0.5623
[H][C@@]12CN(c3ncc(C)cn3)C[C@@]1([H])N(CC1CC1)C(=O)CO2,0.7071,-3.242 and 1.595
O=C(O)C(F)(F)F.O=C(O)C(F)(F)F.[H][C@@]12CCN(c3ncccn3)[C@]1([H])CC[C@@H](C(=O)NCc1cccnc1)O2,-23.18 and -9.013,-25.32
CC(O)(CNS(=O)(=O)Cc1ccon1)c1ccsc1 (stereo unspecified),5.687,-3.085
CC(CCc1cccn1C)NC(=O)Nc1cccn(C)c1=O (stereo unspecified),14.79,-17.97 and 1.066
CN1CCc2[nH]cnc2C12CCN(C(=O)c1noc3c1CCCC3)CC2,7.459 and -2.005,-3.756
Cc1ccc(S(=O)(=O)CCC(=O)N(C)Cc2cnn(C)c2)cc1,-15.01,-39.78
CC(C(=O)NCCN1CCCCCC1)n1cncn1 (stereo unspecified),1.363,6
COc1ccccc1CC(=O)N1CCCC(CNS(C)(=O)=O)C1 (stereo unspecified),5.41,1.399
CNc1nc(C(=O)N2CCCC(COc3ccc(F)cc3)C2)cs1 (stereo unspecified),-11.38,-10.46
CN1CCOC(CNCc2coc(-c3ccccc3Cl)n2)C1 (stereo unspecified),-6.38,4.951 and -5.952
CN(C)CCn1ccc(NC(=O)NC(C)(C)c2nccs2)n1,-6.216,2.506 and -22.08
[H][C@]12CCN[C@@]1([H])CN(C(=O)CCc1ccccc1)C2,-12.95,1.224
Cc1ccc(CN2CCCC23Cc2ccccc2CNC3=O)cc1 (stereo unspecified),-25.35,-2.115
CC(C)CN1C[C@@H](C(=O)O)C[C@@H](C(=O)NCc2ccncc2)C1,-14.97,-0.9402
Cn1nc(CN2CCCC2)c2c1CN(c1cnccn1)CC2.O=C(O)C(F)(F)F.O=C(O)C(F)(F)F,-12.57,-12.56
CC(=O)N1N=C(c2ccco2)OC1C(=O)N(C)CCc1ccccc1 (stereo unspecified),-24.05,-23.5
CCS(=O)(=O)N1CCC2(CCCN(Cc3ccc(F)c(F)c3)C2=O)C1 (stereo unspecified),-0.2405,-6.111
CCOCCCC(=O)Nc1c(-c2ccc(F)cc2)ncn1C,-21.58,-4.85 and -3.98
O=C(O)CNC(=O)Cc1csc(-c2cccc(Cl)c2)n1,-5.852,-25.19
CN1CCC(N[C@@H]2CO[C@H](CNC(=O)Nc3ccccc3)[C@H]2O)CC1,-10.83,-3.136 and -8.285
CSCCCN1C[C@H](NC(=O)c2ccc(C#N)nc2)[C@@H](C2CC2)C1,-0.06085,16.32
CCS(=O)(=O)N1CCN(CCOC)c2ncccc2C1,-8.699,-9.54
COc1nccnc1-c1cc(NC2CCCC2)nc2[nH]ccc12,-25.13,-26.83
Cn1nc(C2CN(C(=O)c3cscn3)C2)c2nccnc21,-8.514,18.33
CC1CCN(C(=O)c2cccc3ncccc23)CC1,-14.33,-30.34
CC(C)(C)c1cc(=O)n2c(n1)SCC(C(=O)NCc1ccccn1)C2 (stereo unspecified),-2.811,19.86
CCc1cc(C(=O)NCC2CCN(Cc3ccncc3)CC2)on1,-13.61,-24.35
Cc1cc2ccccc2n1CCC(=O)N1CCCC1Cn1cccn1 (stereo unspecified),15.07,21.89
COc1cc(CCC(=O)NC(C)C)ccc1OCC(F)(F)F,-6.871,8.136
COC(=O)CSCc1nc(-c2ccc(Cl)cc2)no1,-4.731,43.6 and 45.61
Cc1cc(C)n(CC2(CNC(=O)C(c3ccccc3C)N(C)C)CC2)n1 (stereo unspecified),2.822,26.09
Fc1ccc(OCCCN2CC(n3cccn3)C2)cc1,6.869,10.68
Cc1ccc2nc(N3CCN(CC(=O)NC(C)C)CC3)cc(C)c2c1,2.811,-10.67
OCCN1CCN(CC2(O)CCCCC2)CC1,13.8,-18.96
CCC[C@H]1CN(c2nc(CO)cs2)C[C@@H]1NC(=O)C1(COC)CC1,14.55 and 17.34,9.558
CNc1cc2c(nn1)CCN(C(=O)c1cccc3c1OCCO3)C2,-2.734,66.33
COc1ccc(-c2cc3nn(CC(=O)NC(C)C)c(=O)n3c(C)n2)cc1,6.266,26.91
O=C(CCSC1CCc2ccccc2NC1=O)NCCCO (stereo unspecified),-8.937,20.56
O=C(NCc1nnc2n1CCC2)N(Cc1ccco1)C1CC1,-2.557,-26.29
CC(C)N1CCc2onc(Cn3cccn3)c2C1,-5.912,-8.634
CC(C)Cc1cc(C(=O)O)nc2[nH]c(=O)[nH]c(=O)c12,-10.06,-5.987
Cc1cc(NCCS(C)(=O)=O)nc2ccccc12,1.004,11.43 and -1.079
CCS(=O)(=O)CC(=O)Nc1ccccc1N1CCc2ccccc21,-13.7,16.87 and 13.13

Once more, the final 5:

{"compound": "O=C(NCc1nnc2n1CCC2)N(Cc1ccco1)C1CC1", "A": -2.557, "B": -26.29}
{"compound": "CC(C)N1CCc2onc(Cn3cccn3)c2C1", "A": -5.912, "B": -8.634}
{"compound": "CC(C)Cc1cc(C(=O)O)nc2[nH]c(=O)[nH]c(=O)c12", "A": -10.06, "B": -5.987}
{"compound": "Cc1cc(NCCS(C)(=O)=O)nc2ccccc12", "A": 1.004, "B": "11.43 and -1.079"}
{"compound": "CCS(=O)(=O)CC(=O)Nc1ccccc1N1CCc2ccccc21", "A": -13.7, "B": "16.87 and 13.13"}